In the supplement of paper PMC10849652:
The other results are listed elsewhere or left out.

Amino acid sequences for entries named in this document (tags omitted). A change or cut given only in a name is not applied to a line headed by its entry.
UniProt Q9BUH6, whole entry, looked up: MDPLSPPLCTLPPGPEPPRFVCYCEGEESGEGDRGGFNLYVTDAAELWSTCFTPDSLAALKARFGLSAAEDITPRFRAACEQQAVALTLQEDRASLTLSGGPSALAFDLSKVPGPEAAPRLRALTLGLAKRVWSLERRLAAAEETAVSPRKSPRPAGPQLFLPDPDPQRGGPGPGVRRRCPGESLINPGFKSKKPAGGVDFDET
UniProt P11498: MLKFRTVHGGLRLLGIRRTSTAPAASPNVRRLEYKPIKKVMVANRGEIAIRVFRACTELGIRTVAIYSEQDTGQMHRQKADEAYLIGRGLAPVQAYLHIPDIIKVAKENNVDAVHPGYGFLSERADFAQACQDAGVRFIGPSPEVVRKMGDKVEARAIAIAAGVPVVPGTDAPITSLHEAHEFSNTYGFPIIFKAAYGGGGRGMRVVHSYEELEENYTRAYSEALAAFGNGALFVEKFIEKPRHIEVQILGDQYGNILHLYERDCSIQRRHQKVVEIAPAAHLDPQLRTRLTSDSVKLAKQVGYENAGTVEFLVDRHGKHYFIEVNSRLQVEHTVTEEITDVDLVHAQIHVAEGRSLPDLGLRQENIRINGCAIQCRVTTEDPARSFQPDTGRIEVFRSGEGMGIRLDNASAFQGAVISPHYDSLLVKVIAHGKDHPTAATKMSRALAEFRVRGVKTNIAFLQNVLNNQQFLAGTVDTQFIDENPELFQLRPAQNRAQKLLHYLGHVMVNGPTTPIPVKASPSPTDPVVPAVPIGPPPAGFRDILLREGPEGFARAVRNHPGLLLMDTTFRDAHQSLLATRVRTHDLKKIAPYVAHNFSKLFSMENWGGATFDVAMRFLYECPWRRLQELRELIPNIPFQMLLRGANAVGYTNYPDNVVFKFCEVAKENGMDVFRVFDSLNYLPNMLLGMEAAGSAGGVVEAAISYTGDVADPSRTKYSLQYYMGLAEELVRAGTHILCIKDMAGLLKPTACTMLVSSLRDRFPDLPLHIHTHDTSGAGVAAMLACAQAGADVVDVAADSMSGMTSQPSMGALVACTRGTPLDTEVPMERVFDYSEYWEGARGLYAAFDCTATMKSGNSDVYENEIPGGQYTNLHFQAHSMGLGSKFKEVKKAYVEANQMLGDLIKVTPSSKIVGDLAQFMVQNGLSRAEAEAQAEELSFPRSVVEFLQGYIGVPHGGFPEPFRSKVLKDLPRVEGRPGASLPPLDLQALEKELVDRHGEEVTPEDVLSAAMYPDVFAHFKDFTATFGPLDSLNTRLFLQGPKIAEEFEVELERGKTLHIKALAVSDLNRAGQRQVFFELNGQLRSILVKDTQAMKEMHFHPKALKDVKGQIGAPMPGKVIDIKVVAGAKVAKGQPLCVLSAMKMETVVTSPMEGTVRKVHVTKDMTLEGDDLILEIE
UniProt P35227: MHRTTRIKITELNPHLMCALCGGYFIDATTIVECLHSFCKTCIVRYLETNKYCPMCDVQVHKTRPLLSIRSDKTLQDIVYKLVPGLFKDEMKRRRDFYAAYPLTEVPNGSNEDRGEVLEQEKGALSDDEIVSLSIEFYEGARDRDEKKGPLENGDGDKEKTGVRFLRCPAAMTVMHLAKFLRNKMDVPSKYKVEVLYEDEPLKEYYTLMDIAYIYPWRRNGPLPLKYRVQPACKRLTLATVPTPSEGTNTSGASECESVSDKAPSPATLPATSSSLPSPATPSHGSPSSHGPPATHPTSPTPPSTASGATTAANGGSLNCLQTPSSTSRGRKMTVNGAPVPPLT
UniProt Q9NP74: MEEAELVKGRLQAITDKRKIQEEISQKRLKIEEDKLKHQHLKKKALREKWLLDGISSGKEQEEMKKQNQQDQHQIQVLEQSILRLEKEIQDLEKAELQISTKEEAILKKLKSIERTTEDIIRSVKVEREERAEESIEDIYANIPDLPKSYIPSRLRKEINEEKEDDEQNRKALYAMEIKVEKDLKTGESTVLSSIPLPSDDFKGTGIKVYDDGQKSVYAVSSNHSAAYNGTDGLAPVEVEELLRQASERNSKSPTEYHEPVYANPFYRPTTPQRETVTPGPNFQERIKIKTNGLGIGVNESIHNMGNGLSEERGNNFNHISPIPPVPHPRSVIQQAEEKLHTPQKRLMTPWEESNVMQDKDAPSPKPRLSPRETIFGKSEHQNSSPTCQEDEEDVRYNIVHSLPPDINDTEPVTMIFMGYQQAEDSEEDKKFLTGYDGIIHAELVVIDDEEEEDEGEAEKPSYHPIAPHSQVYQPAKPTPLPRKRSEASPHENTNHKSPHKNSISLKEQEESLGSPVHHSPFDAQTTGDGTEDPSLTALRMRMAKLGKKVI
UniProt Q13153, whole entry, looked up: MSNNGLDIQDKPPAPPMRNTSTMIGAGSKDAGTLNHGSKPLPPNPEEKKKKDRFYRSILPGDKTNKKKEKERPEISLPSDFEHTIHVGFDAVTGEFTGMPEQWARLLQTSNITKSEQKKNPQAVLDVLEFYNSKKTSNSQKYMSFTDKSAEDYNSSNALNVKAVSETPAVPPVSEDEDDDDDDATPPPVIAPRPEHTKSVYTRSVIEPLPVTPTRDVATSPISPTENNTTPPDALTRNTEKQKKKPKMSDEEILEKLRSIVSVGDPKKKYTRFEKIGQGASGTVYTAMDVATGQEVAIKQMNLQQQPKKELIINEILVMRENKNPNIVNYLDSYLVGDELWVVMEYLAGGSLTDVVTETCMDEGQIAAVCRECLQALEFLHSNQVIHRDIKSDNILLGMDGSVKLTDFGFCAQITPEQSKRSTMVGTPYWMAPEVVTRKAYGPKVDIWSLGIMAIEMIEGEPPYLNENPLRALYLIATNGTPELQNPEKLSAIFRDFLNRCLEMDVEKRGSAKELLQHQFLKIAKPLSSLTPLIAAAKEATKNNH
UniProt Q9HBH1: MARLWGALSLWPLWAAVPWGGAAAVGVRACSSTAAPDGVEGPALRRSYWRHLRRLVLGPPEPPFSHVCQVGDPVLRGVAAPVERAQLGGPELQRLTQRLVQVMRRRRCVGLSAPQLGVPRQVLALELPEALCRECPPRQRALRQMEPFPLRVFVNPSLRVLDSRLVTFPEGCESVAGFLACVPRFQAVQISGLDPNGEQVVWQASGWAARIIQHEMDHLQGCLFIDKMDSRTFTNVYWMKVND
UniProt Q9HBI1: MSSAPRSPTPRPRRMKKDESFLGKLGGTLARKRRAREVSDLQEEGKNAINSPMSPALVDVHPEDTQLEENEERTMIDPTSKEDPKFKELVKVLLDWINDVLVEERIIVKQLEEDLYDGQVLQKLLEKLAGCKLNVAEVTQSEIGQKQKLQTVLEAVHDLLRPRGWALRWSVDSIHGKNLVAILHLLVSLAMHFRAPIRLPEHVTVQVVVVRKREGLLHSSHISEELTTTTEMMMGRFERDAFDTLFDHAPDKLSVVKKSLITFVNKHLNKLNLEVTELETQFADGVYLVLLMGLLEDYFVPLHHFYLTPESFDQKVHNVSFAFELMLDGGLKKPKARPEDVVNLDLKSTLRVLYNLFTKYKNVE
UniProt P12004, whole entry, looked up: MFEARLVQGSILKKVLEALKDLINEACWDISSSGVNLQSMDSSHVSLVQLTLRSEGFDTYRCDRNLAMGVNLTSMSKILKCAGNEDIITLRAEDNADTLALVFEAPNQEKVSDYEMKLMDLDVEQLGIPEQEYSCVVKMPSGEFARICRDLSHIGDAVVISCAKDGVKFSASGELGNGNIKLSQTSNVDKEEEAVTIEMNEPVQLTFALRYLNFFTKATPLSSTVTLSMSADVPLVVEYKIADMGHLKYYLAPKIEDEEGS
UniProt P05165: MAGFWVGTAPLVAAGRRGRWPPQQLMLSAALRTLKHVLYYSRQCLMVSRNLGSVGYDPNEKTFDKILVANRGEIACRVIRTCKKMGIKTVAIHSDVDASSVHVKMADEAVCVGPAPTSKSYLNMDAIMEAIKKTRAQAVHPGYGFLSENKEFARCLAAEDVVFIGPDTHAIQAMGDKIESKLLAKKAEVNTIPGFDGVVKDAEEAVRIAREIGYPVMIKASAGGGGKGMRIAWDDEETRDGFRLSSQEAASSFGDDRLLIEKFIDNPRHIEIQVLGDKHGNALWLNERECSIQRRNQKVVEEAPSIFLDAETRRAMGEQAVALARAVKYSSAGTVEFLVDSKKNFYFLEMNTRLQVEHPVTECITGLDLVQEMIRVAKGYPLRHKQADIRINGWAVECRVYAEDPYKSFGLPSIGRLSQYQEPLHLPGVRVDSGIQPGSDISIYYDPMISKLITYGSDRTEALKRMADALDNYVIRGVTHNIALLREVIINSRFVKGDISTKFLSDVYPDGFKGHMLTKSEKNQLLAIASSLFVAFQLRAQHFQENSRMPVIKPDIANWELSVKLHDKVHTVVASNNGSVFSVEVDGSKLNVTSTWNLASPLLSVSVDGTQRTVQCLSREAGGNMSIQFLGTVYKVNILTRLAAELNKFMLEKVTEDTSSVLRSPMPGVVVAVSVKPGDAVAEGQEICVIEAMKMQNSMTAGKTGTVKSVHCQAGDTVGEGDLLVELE
UniProt O43252: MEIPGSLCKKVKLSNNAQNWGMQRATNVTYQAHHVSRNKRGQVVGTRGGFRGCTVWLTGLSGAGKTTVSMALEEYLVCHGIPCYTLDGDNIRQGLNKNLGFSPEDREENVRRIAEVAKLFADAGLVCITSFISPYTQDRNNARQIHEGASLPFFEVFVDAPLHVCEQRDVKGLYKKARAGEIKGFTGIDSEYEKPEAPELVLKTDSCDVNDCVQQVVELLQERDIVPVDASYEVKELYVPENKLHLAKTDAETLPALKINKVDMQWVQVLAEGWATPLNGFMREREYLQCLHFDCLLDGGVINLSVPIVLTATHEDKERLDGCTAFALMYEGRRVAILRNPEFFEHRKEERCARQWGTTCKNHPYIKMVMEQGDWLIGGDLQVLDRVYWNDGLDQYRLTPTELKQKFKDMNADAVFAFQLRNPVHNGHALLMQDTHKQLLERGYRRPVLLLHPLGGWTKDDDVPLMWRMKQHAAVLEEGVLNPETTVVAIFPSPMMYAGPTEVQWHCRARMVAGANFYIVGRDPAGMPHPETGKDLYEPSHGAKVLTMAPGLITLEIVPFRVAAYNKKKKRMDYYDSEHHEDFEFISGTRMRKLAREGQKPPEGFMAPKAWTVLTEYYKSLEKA
UniProt Q8IZL8: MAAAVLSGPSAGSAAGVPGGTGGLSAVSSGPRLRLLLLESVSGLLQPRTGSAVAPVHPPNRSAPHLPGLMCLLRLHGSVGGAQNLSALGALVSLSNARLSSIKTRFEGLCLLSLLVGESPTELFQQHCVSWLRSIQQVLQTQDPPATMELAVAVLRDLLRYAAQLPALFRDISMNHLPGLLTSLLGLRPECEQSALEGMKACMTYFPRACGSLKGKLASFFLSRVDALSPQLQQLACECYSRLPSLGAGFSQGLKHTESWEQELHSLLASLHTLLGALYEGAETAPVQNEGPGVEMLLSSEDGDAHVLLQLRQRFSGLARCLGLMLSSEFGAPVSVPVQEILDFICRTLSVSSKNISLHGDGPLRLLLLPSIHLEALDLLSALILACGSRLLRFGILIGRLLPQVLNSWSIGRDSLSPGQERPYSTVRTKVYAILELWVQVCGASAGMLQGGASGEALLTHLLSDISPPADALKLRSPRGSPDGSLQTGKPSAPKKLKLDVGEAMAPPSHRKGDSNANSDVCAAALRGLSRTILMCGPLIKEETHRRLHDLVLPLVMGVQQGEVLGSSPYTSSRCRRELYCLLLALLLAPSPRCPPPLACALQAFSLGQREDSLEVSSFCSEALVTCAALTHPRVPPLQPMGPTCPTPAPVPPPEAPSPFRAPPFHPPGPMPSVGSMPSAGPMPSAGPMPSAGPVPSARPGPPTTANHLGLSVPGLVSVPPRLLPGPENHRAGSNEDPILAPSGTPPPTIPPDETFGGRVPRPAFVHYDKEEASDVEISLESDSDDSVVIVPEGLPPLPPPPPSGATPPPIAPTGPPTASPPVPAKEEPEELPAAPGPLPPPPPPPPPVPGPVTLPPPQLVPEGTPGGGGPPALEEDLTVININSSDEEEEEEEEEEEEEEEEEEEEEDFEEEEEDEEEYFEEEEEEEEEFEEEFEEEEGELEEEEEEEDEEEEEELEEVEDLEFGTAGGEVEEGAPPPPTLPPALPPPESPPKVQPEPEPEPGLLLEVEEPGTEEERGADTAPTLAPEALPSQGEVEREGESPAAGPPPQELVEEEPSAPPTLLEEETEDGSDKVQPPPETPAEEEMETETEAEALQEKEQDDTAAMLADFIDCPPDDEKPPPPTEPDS
UniProt Q13442: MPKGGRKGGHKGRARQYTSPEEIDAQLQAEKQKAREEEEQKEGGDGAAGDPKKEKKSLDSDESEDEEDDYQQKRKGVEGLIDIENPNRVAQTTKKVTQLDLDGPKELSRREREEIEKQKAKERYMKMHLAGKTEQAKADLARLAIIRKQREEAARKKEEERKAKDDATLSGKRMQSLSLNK
UniProt Q15121, whole entry, looked up: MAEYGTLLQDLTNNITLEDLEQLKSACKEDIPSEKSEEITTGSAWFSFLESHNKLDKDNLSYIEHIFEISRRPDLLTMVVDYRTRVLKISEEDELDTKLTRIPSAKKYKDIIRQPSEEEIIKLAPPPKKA

Experiments:
Assay in all cases: log2 fold change, soluble protein after heating vs DMSO (PISA); higher = thermal stabilisation; K562 cells, 10 uM, 30 min; active = over 0.2 and 3.5 SD of the protein, either way, in both replicates (recomputed)
[1] = compound: COC1=CC=C(C=C1)CN2C=CC3=C2C=C(C=C3)C(=O)NO
In short: (§1)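 K562 cells at 2×10^6 cells/mL were treated with 10 μM compound for 30 min. Aliquots were heated for 3 min across 48°C-58°C, pooled, and extracted in PBS with 0.5% NP-40 at 4°C; soluble protein was the supernatant after 21,000xg for 90 min. Soluble protein was quantified by TMTpro 16plex LC-MS/MS with channel sums equalised, and reported as log2 fold change in thermal stability against DMSO controls, with values from duplicates.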

filanesib = compound: CON(C)C(=O)N1N=C(c2cc(F)ccc2F)S[C@@]1(CCCN)c1ccccc1 [filanesib]
In short: as §1

zotarolimus = compound: CO[C@H]1C[C@@H]2CC[C@@H](C)[C@@](O)(O2)C(=O)C(=O)N2CCCC[C@H]2C(=O)O[C@H]([C@H](C)C[C@@H]2CC[C@H](n3cnnn3)[C@H](OC)C2)CC(=O)[C@H](C)/C=C(\C)[C@@H](O)[C@@H](OC)C(=O)[C@H](C)C[C@H](C)/C=C/C=C/C=C/1C [zotarolimus]
In short: as §1

idasanutlin = compound: COc1cc(C(=O)O)ccc1NC(=O)[C@@H]1N[C@@H](CC(C)(C)C)[C@](C#N)(c2ccc(Cl)cc2F)[C@H]1c1cccc(Cl)c1F [idasanutlin]
In short: as §1

alisertib = compound: COc1cc(Nc2ncc3c(n2)-c2ccc(Cl)cc2C(c2c(F)cccc2OC)=NC3)ccc1C(=O)O [alisertib]
In short: as §1

[2] = compound: COc1cc2nc(-c3cc(F)ccc3O)nc(N[C@@H]3CNC[C@H]3C(C)(C)O)c2cc1OC
In short: as §1

gefitinib = compound: COc1cc2ncnc(Nc3ccc(F)c(Cl)c3)c2cc1OCCCN1CCOCC1 [gefitinib]
In short: as §1

[3] = compound: COc1cccc2cc(-c3nc([C@H]4CC[C@H](C(=O)O)CC4)n4ncnc(N)c34)[nH]c12
In short: as §1

lapatinib = compound: CS(=O)(=O)CCNCc1ccc(-c2ccc3ncnc(Nc4ccc(OCc5cccc(F)c5)c(Cl)c4)c3c2)o1 [lapatinib]
In short: as §1

pictilisib = compound: CS(=O)(=O)N1CCN(Cc2cc3nc(-c4cccc5[nH]ncc45)nc(N4CCOCC4)c3s2)CC1 [pictilisib]
In short: as §1

Target	log2 fold change [1]	log2 fold change (filanesib)	log2 fold change (zotarolimus)	log2 fold change (idasanutlin)	log2 fold change (alisertib)	log2 fold change [2]	log2 fold change (gefitinib)	log2 fold change [3]	log2 fold change (lapatinib)	log2 fold change (pictilisib)
PDIA3 (UniProt H7BZJ3)	inactive: -0.161	inactive: 0.03	inactive: 0.011	inactive: 0.113	inactive: -0.072	inactive: -0.081	inactive: -0.009	inactive: -0.173	inactive: 0.048	inactive: -0.224
PAXX (UniProt Q9BUH6)	inactive: 0.034	inactive: -0.009	inactive: -0.003	inactive: 0.026	inactive: 0.012	inactive: 0.028	inactive: -0.006	inactive: 0.062	inactive: -0.013	inactive: 0.025
PANX1 (UniProt Q96RD7)	inactive: -0.047	inactive: 0.007	inactive: -0.011	inactive: 0.001	inactive: -0.095	inactive: 0.038	inactive: -0.021	inactive: 0.033	inactive: -0.021	inactive: 0.042
PC (UniProt P11498)	inactive: 0.05	inactive: 0.08	inactive: -0.04	active: -0.372	inactive: -0.039	inactive: 0.14	inactive: 0.024	inactive: 0.014	inactive: -0.011	inactive: 0.09
PCGF2 (UniProt P35227)	inactive: -0.039	inactive: 0.055	inactive: 0.03	inactive: -0.008	inactive: 0.036	inactive: 0.11	inactive: 0.021	inactive: 0.018	inactive: -0.058	inactive: -0.02
PAGR1 (UniProt Q9BTK6)	inactive: 0.172	inactive: -0.126	inactive: -0.009	inactive: -0.025	inactive: -0.118	inactive: -0.029	inactive: 0.002	inactive: -0.064	inactive: 0.041	inactive: -0.124
PALMD (UniProt Q9NP74)	inactive: -0.015	inactive: 0.034	inactive: -0.011	inactive: 0.079	inactive: 0.012	inactive: 0.043	inactive: -0.021	inactive: 0	inactive: 0.009	inactive: -0.009
PAK1 isoform 2 (UniProt Q13153)	inactive: 0.178	inactive: 0.04	inactive: 0.003	inactive: -0.155	inactive: 0.086	inactive: -0.007	inactive: -0.025	inactive: -0.098	inactive: -0.015	inactive: 0.183
PDF (UniProt Q9HBH1)	inactive: 0.181	inactive: -0.014	inactive: -0.074	inactive: -0.006	inactive: -0.051	inactive: -0.105	inactive: 0.04	inactive: 0.034	inactive: 0.008	inactive: 0.018
PARVB (UniProt Q9HBI1)	inactive: -0.074	inactive: -0.06	inactive: 0.035	inactive: 0	inactive: 0.255	inactive: -0.035	inactive: -0.053	inactive: 0.015	inactive: 0.022	inactive: 0
PCYT1B (UniProt Q9Y5K3)	inactive: 0.005	inactive: 0.026	inactive: 0	inactive: -0.029	inactive: -0.156	inactive: 0.131	inactive: -0.051	inactive: 0.018	inactive: -0.019	inactive: -0.12
PDCD6IP (UniProt Q8WUM4)	inactive: 0.105	inactive: -0.022	inactive: 0.079	inactive: -0.018	inactive: 0.045	inactive: 0.022	inactive: 0.06	inactive: -0.118	inactive: -0.04	inactive: 0.009
PDS5B (UniProt Q9NTI5)	inactive: 0.065	inactive: 0.104	inactive: 0.037	inactive: -0.07	inactive: -0.05	inactive: -0.188	inactive: 0.123	inactive: 0.078	inactive: -0.206	inactive: 0.066
PDPR (UniProt Q8NCN5)	inactive: 0.028	inactive: -0.023	inactive: 0.044	inactive: -0.029	inactive: -0.041	inactive: -0.062	inactive: 0.034	inactive: 0.009	inactive: 0	inactive: 0.062
PDHA1 isoform 4 (UniProt P08559)	inactive: 0.001	inactive: 0.074	inactive: 0.027	inactive: -0.055	inactive: -0.096	inactive: -0.026	inactive: -0.061	inactive: -0.125	inactive: 0.166	inactive: -0.091
PAGE1 (UniProt O75459)	inactive: 0.055	inactive: 0.015	inactive: -0.062	inactive: 0.024	inactive: -0.048	inactive: -0.034	inactive: -0.003	inactive: 0.023	inactive: -0.046	inactive: -0.02
PCNA (UniProt P12004)	inactive: 0.014	inactive: -0.094	inactive: -0.021	inactive: -0.036	inactive: -0.052	inactive: -0.003	inactive: -0.002	inactive: 0.07	inactive: -0.012	inactive: 0.006
PAFAH1B3 (UniProt Q15102)	inactive: -0.01	inactive: -0.024	inactive: 0.037	inactive: -0.033	inactive: -0.044	inactive: 0.03	inactive: 0.043	inactive: 0.057	inactive: -0.054	inactive: 0.079
PDCD5 (UniProt O14737)	inactive: 0.054	inactive: -0.122	inactive: -0.003	inactive: -0.01	inactive: -0.033	inactive: 0.018	inactive: 0.004	inactive: 0.056	inactive: -0.054	inactive: 0.009
PDZD8 (UniProt Q8NEN9)	inactive: -0.043	inactive: -0.073	inactive: 0	inactive: -0.055	inactive: 0.013	inactive: 0.03	inactive: -0.009	inactive: 0.063	inactive: -0.043	inactive: 0
PER3 isoform 2 (UniProt P56645)	inactive: 0.026	inactive: -0.084	inactive: -0.021	inactive: 0.005	inactive: -0.077	inactive: 0.072	inactive: 0.016	inactive: -0.015	inactive: -0.007	inactive: 0.058
PCCA (UniProt P05165)	inactive: -0.051	inactive: -0.108	inactive: -0.049	inactive: -0.025	inactive: -0.02	inactive: -0.027	inactive: 0.009	inactive: 0.032	inactive: 0.083	inactive: 0.054
PAPSS1 (UniProt O43252)	inactive: -0.041	inactive: -0.031	inactive: 0.041	inactive: -0.079	inactive: -0.03	inactive: 0.005	inactive: -0.016	inactive: 0.042	inactive: -0.024	inactive: 0.062
PELP1 (UniProt Q8IZL8)	inactive: -0.096	inactive: -0.022	inactive: 0.012	inactive: 0.012	inactive: -0.045	inactive: -0.033	inactive: -0.002	inactive: 0.042	inactive: 0.031	inactive: -0.074
PCBD2 (UniProt Q9H0N5)	inactive: -0.002	inactive: -0.033	inactive: 0.001	inactive: -0.01	inactive: -0.02	inactive: -0.001	inactive: 0.006	inactive: 0.026	inactive: -0.04	inactive: 0.055
PARK7 (UniProt Q99497)	inactive: 0.059	inactive: -0.079	inactive: 0.039	inactive: -0.084	inactive: -0.032	inactive: -0.027	inactive: 0.001	inactive: -0.037	inactive: 0.027	inactive: -0.052
PDAP1 (UniProt Q13442)	inactive: 0.018	inactive: -0.045	inactive: -0.025	inactive: 0.01	inactive: -0.078	inactive: 0.002	inactive: 0.005	inactive: 0.031	inactive: 0.017	inactive: 0
PDLIM7 (UniProt Q9NR12)	inactive: 0.055	inactive: 0.014	inactive: 0.014	inactive: -0.042	inactive: -0.06	inactive: 0.03	inactive: -0.104	inactive: 0.012	inactive: 0.012	inactive: -0.046
PEA15 isoform 2 (UniProt Q15121)	inactive: 0.011	inactive: -0.079	inactive: 0.05	inactive: -0.02	inactive: -0.047	inactive: -0.009	inactive: 0	inactive: -0.015	inactive: -0.003	inactive: 0.03

Not a retest: entries from further up.
Target	log2 fold change [1]	log2 fold change (filanesib)	log2 fold change (zotarolimus)	log2 fold change (idasanutlin)	log2 fold change (alisertib)	log2 fold change [2]	log2 fold change (gefitinib)	log2 fold change [3]	log2 fold change (lapatinib)	log2 fold change (pictilisib)
PANX1 (UniProt Q96RD7)	inactive: -0.047	inactive: 0.007	inactive: -0.011	inactive: 0.001	inactive: -0.095	inactive: 0.038	inactive: -0.021	inactive: 0.033	inactive: -0.021	inactive: 0.042
PC (UniProt P11498)	inactive: 0.05	inactive: 0.08	inactive: -0.04	active: -0.372	inactive: -0.039	inactive: 0.14	inactive: 0.024	inactive: 0.014	inactive: -0.011	inactive: 0.09
